No constants are given. Whether binding was seen depends on the method and setting. In cells and extracts the contact can be indirect. Here binding means that the protein was enriched with, or labelled near, the bait; the list need not be complete.
Target: Twin-strep-tagged SprA (Flavobacterium johnsoniae)
Experiment: affinity purification with mass spectrometry; Twin-strep–SprA complexes from ΔgldL backgrounds (alone or with ΔsprE, ΔskpA or sprA(Δnterm)); membranes solubilised in 1% LMNG, Strep-TactinXT, Superose 6 in 100 mM Tris-HCl pH 8.0, 150 mM NaCl, 1 mM EDTA, 0.01% LMNG, 4 °C; SDS–PAGE bands and whole samples identified by peptide fingerprinting

B1: RemZ (Fjoh_0803) (protein, UniProt A5FLT3 1-1114)
chain: MDVQAWGGGGAGGGASGAVLDGRAAAGGGGGAYARSNITVAAGATLNASVAGTTTNALVSGAAVNGAAGGSSTILGFETSILALGGGGGGANNAGGTPAGGAGGSAASSVGNVSKLDGAAGGNGVTGAIGLLTVSGAGGTAGGGGGAGGAGVASVALGNGPGNAGTAPGGGGSGAMQSLLGGAQIGGSGAAGRVIITYTCPTYSITGISAANVCNSVGTTSVVTLTSSGGGLPIGPYVVTYNRSNPSGTGLTAIMNVTTPGTGTFTAAGLNVIGTSNITVTNLTSAACSSNISTNNVASLTVFAATVGGTLAGTATVCSGATSGTLTLSGQTGSIIKWESSVSPFTVWTTIPNTTNTYTSGALTETSQFRAVIQNGNCAVVNSSIATITVNPLPQGSLSANGPFCVTGSGQLTFTATAGTGPYTIVYKENGGADRTAANISSGVAFPTFTTPVTTTTVYTLVSVTGANTCSRSSGFTNNTATITVNSRIATPGFGTVTQPDCVTSTGSVVLTGLPAGSWTITQSGTASQTYNSSGTTYTISNLAVGNYTFTVQDAANCPSLATSTLTLIAPVVNIWNGTSWSKGSPPISTDVVRFSGNYSTTGNLSGCSLIVDSGFTVTVNSNHTLTISNAVTNNGGQLIFENNSSLLQTNNVTNVGNITYKRITPPVRRYDLTYWSSPITRTPPFTLYDLSPGTLADKYYSYDPVAGWVISFNGTQQMVPGRGYVVRAPQTNDLNTGANYLGAFVGVPNNGPISVSLGTAEAFQLLGNPYPSAIYADQFIANNSANLYGTLYFWTHNSLPSSSTPGGAQYNYDNNDYAVYNLSGSIIVGGMTGQGATTPGNQSAPLGYIAAGQGFFVVSKTAGNAVFTNSMRVAANNTQFYKTNKSAIERHRVWINLTNTQGAFKQLLIGYIEGATNFWDHNYDAITADANPHLDFYSINEGQNLVIQGRSLPFNESDVVPLGYRSAIAGEFSISLDHADGDLTNHAVYLEDKLTNTLHNLQTSNYTFNTAIGTFSDRFVIRYTTATLGTDDFENQTNSFYVSVKDKTIKLNSTEDVMREVSIFDISGKLLYNNKKVENTEFQVSNFQSGNQVLIVKVTLDNGNIITKKIVFN
Q: With B1 as the binder, how does the binding read?
A: binds

Source: publication PMC10994853
